Measurements as given in PubChem BioAssay AID2417 (National Center for Advancing Translational Sciences (NCATS), 2010).
The whole screen tested about 140,000 compounds, of which about 4,300 (3.1%) were called active. The inconclusive results got no clear call from the source; some entries with a clear call stand among them for comparison.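 The calls were made as follows: active = readout at or below -70, meaning at least 70% loss of cells showing the perinucleolar compartment, a nuclear body marking cancer cells; inconclusive = readout between -30 and a set limit; inactive = the rest.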

Assay: High Content Assay for Compounds that inhibit the Assembly of the Perinucleolar Compartment;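 also: plate controls were DMSO wells for no effect and camptothecin positive control wells for full effect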
Details: PC3M PTB-GFP, PNC prevalence imaging, 16 h; at 10 µM; stronger effect = lower value
Procedure, shortened: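 Compounds are pinned in duplicate onto adhered PC3M cells stably expressing GFP-tagged PTB and incubated 16 h at 37 C. Cells are then fixed, nuclei stained with Hoechst, and PNC-positive cells counted.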

Compound | activity change (PNC), negative = inhibition
C/C(=N\OCC(=O)Nc1ccc2c(c1)OCCO2)c1ccc2c(c1)OCCO2 | inconclusive: -61.9%
CC(C)c1ccc(NC(=O)C(c2ccccc2)N2CCN(C(=O)c3ccco3)CC2)cc1 (configuration not stated) | inactive: -23.2%
O=C(CCN1CCCCCC1)Nc1ccc(F)cc1 | inconclusive: -40.7%
COc1ccc(C2C(C(C)=O)=C(O)C(=O)N2C)c(OC)c1 (configuration not stated) | active: -127%
CC(NC(=O)CN1CCN(c2ncccn2)CC1)c1ccc(F)cc1 (configuration not stated) | inconclusive: -32.1%
COc1ccc(C2NCCc3c2[nH]c2ccccc32)cc1CSc1nc2ccccc2s1 (configuration not stated) | inactive: 81.1%
COC(=O)c1ccccc1NC(=O)CN(C)S(=O)(=O)c1cc(C)ccc1OC | inactive: 29.4%
O=C(NCc1ccc2[nH]c3c(c2c1)CCCC3)N1CCOCC1 | inconclusive: -78.6%
O=C(NCc1ccccn1)c1cc(-c2ccccc2Cl)nc2ccccc12 | active: -88.1%
COc1ccccc1CN1C(=O)CN(C2CCCC2)C(=O)C1c1ccc(F)cc1 (configuration not stated) | inconclusive: -39.5%
CCn1c(N)c(C(=O)Nc2ccccc2C(=O)OC)sc1=S | inactive: -11.1%
Cc1cc(SC#N)cc(C)c1NC(=O)CCl | active: -115%
COc1ccc(OC)c(S(=O)(=O)N(C)CC(=O)N2CCN(c3ccccc3F)CC2)c1 | inconclusive: -45.3%
COc1cc2c(cc1NCc1ccc3c(c1)OCO3)oc1ccccc12 | inconclusive: -56.8%
O=C(CCc1ccccc1)NNC(=O)COc1ccccc1 | inconclusive: -37.9%
C=CCN(c1ccccc1)S(=O)(=O)c1ccc(Cl)c(C(=O)OCC(=O)c2[nH]c(C)c(C(C)=O)c2C)c1 | inactive: -11.1%
CC(C)NC(=O)NC(=O)COC(=O)CCCSc1nc2ccccc2s1 | inconclusive: -60.7%
O=C1c2ccccc2-c2cccc(C(=O)N3CCCCCC3)c21 | inconclusive: -31.8%
COc1ccc(C2/C(=C(/O)c3ccccc3)C(=O)C(=O)N2CCN2CCOCC2)c(OC)c1 (configuration not stated) | inactive: 34.4%
FC(F)(F)c1cnc(Sc2nnc(-c3cccs3)n2CC2CCCO2)c(Cl)c1 (configuration not stated) | inconclusive: -70.8%
Cn1c(Oc2ccccc2NCc2cccc(Br)c2)cc(=O)n(C)c1=O | inconclusive: -34.7%
Cc1ccc2sc(NC(=O)CN3C(=O)c4ccccc4C3=O)nc2c1C | active: -119%
COC(=O)c1ccc(=O)n(Cc2ccco2)c1 | inconclusive: -43.7%

Compound | activity change (PNC), negative = inhibition
Cc1ccc2cc(C(c3nnnn3C3CCCC3)N3CCOCC3)c(=O)[nH]c2c1C (configuration not stated) | inconclusive: -67.3%
Nc1nc(CN2CCN(c3ccccc3F)CC2)nc(Nc2ccccc2)n1 | inconclusive: -73.4%
O=C(Nc1cccc(Oc2c(F)c(F)c(F)c(F)c2F)c1)N1C[C@@H]2C[C@@H](C1)c1cccc(=O)n1C2 | inconclusive: -43.3%
COc1ccc(C(=O)Nn2c(C)ccc2C)cc1OC | inconclusive: -63.8%
CC(Sc1nc(-c2ccccc2)cc(C(F)(F)F)n1)C(=O)N1CCOCC1 (configuration not stated) | inconclusive: -38.2%
CC1CCCCN1C(=O)CSc1nnc(Cc2ccccc2)n1C (configuration not stated) | active: -100%
COc1ccc(OC)c(NC(=O)CSc2nc(C)cs2)c1 | inactive: -2.85%
CN(C(=O)c1ccc2c(c1)C(=O)N(CCC1=CCCCC1)C2=O)C1CCCCC1 | inactive: 15.5%
Cc1sc2nc(C3CC3)nc(SCC(=O)N3CC(=O)Nc4ccccc43)c2c1C | inconclusive: -32.5%
CNC(=O)C1CCC(=O)N1Cc1ccccc1Cl (configuration not stated) | inconclusive: -49.6%
c1ccc(C2=Nc3ccccc3OC2)cc1 | inconclusive: -51.3%
Cc1cc(Cl)ccc1NC(=O)CCC(=O)O | active: -83.5%
COc1ccccc1CNC(=O)C(C)NS(=O)(=O)c1ccccc1 (configuration not stated) | inconclusive: -60.3%
COc1cccc(C2NC(=O)NC(C)=C2C(=O)Nc2ccccc2C)c1 (configuration not stated) | inactive: -3.85%
O=C(/C=C/c1cccc([N+](=O)[O-])c1)N1CCN(c2ccccc2F)CC1 | inactive: 14.3%
O=C(NC1=NCCS1)C1CC2CCC1C2 (configuration not stated) | inconclusive: -43.4%
COc1ccc(C(C[N+](=O)[O-])c2c(-c3ccccc3)cc3ccccn23)cc1 (configuration not stated) | inactive: 3.52%
Cc1ccc(/C=N/NC(=S)N2CCOCC2)cc1 | inconclusive: -39.9%
O=C(/C=C/c1ccc(Cl)cc1)NCc1cccs1 | inconclusive: -50.6%
O=C(Nc1cccc(C(F)(F)F)c1)C1CCCN(c2ncccn2)C1 (configuration not stated) | inactive: 47.9%
COc1cccc(C(C(=O)NC2CCCCC2)N(C(=O)c2ccco2)c2ccc(-n3cnnn3)c(C)c2)c1 (configuration not stated) | active: -100%
N=c1n(Cc2ccc(Cl)cc2)c2ccccc2n1CC(O)c1ccco1 (configuration not stated) | inconclusive: -32.8%
COc1cc2nc(CN(C)Cc3nc4ccccc4c(=O)[nH]3)[nH]c(=O)c2cc1OC | inactive: 16.9%

3 compounds out of the list, arranged by length of the SMILES, largest number first.
Compound | activity change (PNC), negative = inhibition
COc1ccccc1CNC(=O)C(C)NS(=O)(=O)c1ccccc1 (configuration not stated) | inconclusive: -60.3%
CNC(=O)C1CCC(=O)N1Cc1ccccc1Cl (configuration not stated) | inconclusive: -49.6%
c1ccc(C2=Nc3ccccc3OC2)cc1 | inconclusive: -51.3%

(continued)

Compound | activity change (PNC), negative = inhibition
CCOc1cc(/C=C(/C#N)c2nc3ccccc3[nH]2)ccc1Oc1ccc([N+](=O)[O-])cn1 | inconclusive: -43.3%
O=C(OCn1ncc(Br)c(Br)c1=O)c1c(F)cccc1F | inconclusive: -53.9%
COc1cccc(OC)c1OCCNCCO | inconclusive: -33.4%
O=S(NCc1ccco1)C12CC3CC(CC(C3)C1)C2 (configuration not stated) | active: -100%
COC(=O)c1sccc1NC(=S)N1CC(C)CC(C)C1 (configuration not stated) | inactive: -5.09%
Cc1cc(C)n2nc(Cc3ccccc3)nc2n1 | inconclusive: -77.2%
C=CCn1c(COc2ccccc2)nnc1SCc1ccc(C#N)cc1 | inconclusive: -38.7%
Cn1c(SCC(=O)c2ccc3c(c2)Cc2ccccc2-3)nnc1-c1ccccc1 | inconclusive: -38.5%
O=C(Cn1cnc2ccccc2c1=O)OCC(=O)c1ccc2c(c1)OCCO2 | inconclusive: -38%
COc1nc(-c2ccccc2)cc(-c2ccc(OC)c(OC)c2)n1 | inconclusive: -40.8%
Cc1c(CNC(=O)c2cnn3c2NC(c2ccc(Br)cc2)CC3C(F)(F)F)cnn1C (configuration not stated) | active: -123%
CCn1ncc(C2=NOC(C(=O)Nc3ccc(C)cc3)C2)c1C (configuration not stated) | inconclusive: -34.2%
COc1ccc(NC(=O)CCNS(=O)(=O)c2ccc3c(c2)c(=O)n(C)c(=O)n3C)c(OC)c1 | inactive: 10.3%
O=C(CCC(=O)N1CCN(S(=O)(=O)c2ccccc2)CC1)NC1CCCc2ccccc21 (configuration not stated) | inconclusive: -35.1%
Cc1cccc(OCCCC(=O)Nc2ccc(S(=O)(=O)N3CCCC3)cc2)c1 | inconclusive: -71%
CCN1CCN(CC(=O)c2c(C)n(C)c3ccc(OC)cc23)CC1 | inconclusive: -34.4%
O=C(OCC(=O)N1CCN(c2ccccc2)CC1)c1ccco1 | inactive: 45.4%
CN1CC=C2C(C#N)=C(N)C(C#N)(C#N)C(c3ccsc3)C2C1 (configuration not stated) | inconclusive: -42.2%
O=P(O)(CCc1ccccn1)CN1CCOCC1 | inconclusive: -37.4%
COc1ccc(NC(=O)CN2CCN(C3c4ccccc4-c4ccccc43)CC2)cc1 | inconclusive: -44%
CN(C)CCNC(=O)Cn1nc(-c2ccc(Cl)cc2)ccc1=O | inconclusive: -49.2%
COc1ccc(CCNc2ccc(C)cc2)cc1 | inactive: -24.7%
COc1ccc(NC(=O)N2CCCC2)cc1OC | active: -109%

Compound | activity change (PNC), negative = inhibition
CNC(=O)C(C)NS(=O)(=O)c1ccc(F)cc1 (configuration not stated) | inactive: -0.559%
c1ccc(-c2cc3n(c2)CCc2ccccc2-3)cc1 | inconclusive: -50.9%
COc1ccc2nc3c(cc2c1)c(NC(=O)C1CCCO1)nn3CC(C)C (configuration not stated) | inconclusive: -34.8%
C/C(=N/NC(=O)Cc1cc(=O)[nH][nH]1)c1ccc([N+](=O)[O-])cc1 | inconclusive: -55%
CCN(CC)CCNC(=O)CCn1c(=S)[nH]c2cc3c(cc2c1=O)OCO3 | inactive: -1.22%
O=C(NC1CCCc2ccccc21)c1ccc(Br)cc1 (configuration not stated) | inconclusive: -30.9%
CCN1CCN(C(c2cccc(OC)c2)c2sc3nc(C)nn3c2O)CC1 (configuration not stated) | inconclusive: -69%
O=C(NCC(=O)N1CCCC1)c1cccs1 | inconclusive: -64.2%
Cc1onc(-c2ccccc2)c1C(=O)n1nnc2ccccc21 | inconclusive: -52.1%
Cc1nc2c3ccccc3nc(SCC(=O)c3ccc(Cl)cc3)n2n1 | inactive: 5.04%
Cc1cc2c(cc1C)NC(c1cccnc1)C1=C(CC(C)(C)CC1=O)N2 (configuration not stated) | inconclusive: -64.7%
C#CC[N+]1(CC#Cc2ccccc2)CCOCC1 | inconclusive: -33.6%
Cc1ccc2c(c1)c1cccc3c1n2CCN3CCC(N)=O | active: -107%
CCn1c(=O)cc(SCC(=O)NCC2CCCO2)c2ccccc21 (configuration not stated) | inconclusive: -63.1%
O=C(NC1CCCC1)C(c1ccc(N2CCOCC2)cc1)N(Cc1ccccc1)C(=O)c1ccco1 (configuration not stated) | inconclusive: -38.1%
CCn1c(COc2ccccc2C)nnc1SCC(=O)N1CCCCC1 | inconclusive: -49%
O=C(NN1CCOCC1)c1cc(-c2cccc(Cl)c2)nc2ccccc12 | inconclusive: -45.3%
Cn1nc(CC(=O)Nc2ccc(N3CCN(C(=O)OC(C)(C)C)CC3)cc2)c2ccccc2c1=O | inconclusive: -67.9%
CC1CCCC(C)N1C(=O)COC(=O)c1ccc[nH]c1=O (configuration not stated) | inconclusive: -33.3%
O=C(NCCCN1CCCC1=O)c1cccnc1 | inconclusive: -33.4%
COc1ccc(C(=O)Nc2ccc(S(=O)(=O)Nc3onc(C)c3C)cc2)cc1 | inconclusive: -49.6%
Nc1nnc(COc2ccccc2)s1 | inconclusive: -38%
COc1ccc2c(c1)C(=O)C(=O)N2 | inactive: 45.8%
